Results reported in the supplement of paper PMC12823440, “Inhibitors supercharge kinase turnover through native proteolytic circuits” (Nature, 2025).
Where a name gives a salt, the structure may show the parent alone. The list shows a part of the results. Hit calls seldom repeat between salt and free forms of one compound.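 Kinases, fused to nanoluciferase, were expressed in K562 cells; luminescence was measured every 4 h from 2 to 18 h as percent of control (DMSO = 100%, positive control = 0%). A time point is decreased if signal falls significantly (2 sigma). Hits were called by the authors by a rule that is not shown; the count of time points alone does not decide it.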

Protein sequences, listed by entry. Tags and fused reporters are not part of them. Lines headed by an entry give the natural chain unless they say otherwise; changes in a name come on top.
UniProt P51451: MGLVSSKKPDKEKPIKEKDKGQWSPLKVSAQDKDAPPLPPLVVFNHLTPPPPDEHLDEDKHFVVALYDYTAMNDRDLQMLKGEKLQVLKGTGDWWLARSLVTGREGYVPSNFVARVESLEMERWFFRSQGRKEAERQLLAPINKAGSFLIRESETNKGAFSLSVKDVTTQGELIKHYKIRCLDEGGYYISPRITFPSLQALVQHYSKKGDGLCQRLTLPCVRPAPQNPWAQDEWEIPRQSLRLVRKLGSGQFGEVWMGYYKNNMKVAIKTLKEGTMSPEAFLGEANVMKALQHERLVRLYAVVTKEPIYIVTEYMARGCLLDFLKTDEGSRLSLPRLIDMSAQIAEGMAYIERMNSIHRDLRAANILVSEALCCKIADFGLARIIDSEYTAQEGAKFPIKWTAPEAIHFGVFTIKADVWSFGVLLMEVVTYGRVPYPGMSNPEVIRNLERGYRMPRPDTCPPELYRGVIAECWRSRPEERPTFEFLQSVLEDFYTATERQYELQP

Target: BLK (UniProt P51451)
Experiment: kinase-Nluc reporter destabilization hit call (1 = scored as downregulated) (binary); higher = compound decreases kinase abundance
Details: K562; 2-18 h

kinase-Nluc reporter destabilization hit call, inactive:
O=S(=O)(c1cccc2cnccc12)N1CCNCC1 (10 µM) 0
COc1cc(C(C)=O)cc(OC)c1O [Acetosyringone] (10 µM) 0
CCOc1c([C@H](C)n2nc(C)c3c(N)ncnc32)cc(Cl)c(F)c1[C@@H]1CNC(=O)C1 [Parsaclisib (hydrochloride)] (10 µM) 0
CC[C@H](C)[C@H](NC(=O)[C@H](CCC(=O)O)NC(=O)[C@H](CCCN=C(N)N)NC(=O)[C@H](CCCN=C(N)N)NC(=O)[C@@H](N)CCCCN)C(=O)N[C@@H](CC(C)C)C(=O)N[C@@H](CO)C(=O)N[C@@H](CCCN=C(N)N)C(=O)N[C@@H](CCCN=C(N)N)C(=O)N1CCC[C@H]1C(=O)N[C@@H](CO)C(=O)N[C@@H](Cc1ccc(O)cc1)C(=O)N[C@@H](CCCN=C(N)N)C(=O)O [CREBtide] (10 µM) 0
O=C(O)CCc1ccc(NCc2cccc(Oc3ccccc3)c2)cc1 (10 µM) 0
O[C@H]1CC[C@H](Nc2ncc3nc(Nc4c(F)cc(F)cc4F)n([C@H]4CCOC4)c3n2)CC1 [Tanzisertib] (10 µM) 0
Oc1ccccc1C(=S)N1CCCC1 (10 µM) 0
CC[C@@H]1C(=O)N(C)c2cnc(Nc3ccc(C(=O)N[C@H]4CC[C@H](N5CCN(CC6CC6)CC5)CC4)cc3OC)nc2N1C(C)C [Volasertib] (2.5 µM) 0
C[C@@H]1O[C@@H](OC[C@H]2O[C@@H](Oc3cc(O)c4c(c3)O[C@H](c3ccc(O)cc3)CC4=O)[C@H](O)[C@@H](O)[C@@H]2O)[C@H](O)[C@H](O)[C@H]1O [Narirutin] (10 µM) 0
